# In the supplement of paper PMC12067093, “Discovery and optimisation of a covalent ligand for TRIM25 and its application to targeted protein ubiquitination” (Chemical Science, 2025):
# Protein sequences, listed by entry. Tags and fused reporters are not part of them. Lines headed by an entry give the natural chain unless they say otherwise; changes in a name come on top.
# UniProt Q13129: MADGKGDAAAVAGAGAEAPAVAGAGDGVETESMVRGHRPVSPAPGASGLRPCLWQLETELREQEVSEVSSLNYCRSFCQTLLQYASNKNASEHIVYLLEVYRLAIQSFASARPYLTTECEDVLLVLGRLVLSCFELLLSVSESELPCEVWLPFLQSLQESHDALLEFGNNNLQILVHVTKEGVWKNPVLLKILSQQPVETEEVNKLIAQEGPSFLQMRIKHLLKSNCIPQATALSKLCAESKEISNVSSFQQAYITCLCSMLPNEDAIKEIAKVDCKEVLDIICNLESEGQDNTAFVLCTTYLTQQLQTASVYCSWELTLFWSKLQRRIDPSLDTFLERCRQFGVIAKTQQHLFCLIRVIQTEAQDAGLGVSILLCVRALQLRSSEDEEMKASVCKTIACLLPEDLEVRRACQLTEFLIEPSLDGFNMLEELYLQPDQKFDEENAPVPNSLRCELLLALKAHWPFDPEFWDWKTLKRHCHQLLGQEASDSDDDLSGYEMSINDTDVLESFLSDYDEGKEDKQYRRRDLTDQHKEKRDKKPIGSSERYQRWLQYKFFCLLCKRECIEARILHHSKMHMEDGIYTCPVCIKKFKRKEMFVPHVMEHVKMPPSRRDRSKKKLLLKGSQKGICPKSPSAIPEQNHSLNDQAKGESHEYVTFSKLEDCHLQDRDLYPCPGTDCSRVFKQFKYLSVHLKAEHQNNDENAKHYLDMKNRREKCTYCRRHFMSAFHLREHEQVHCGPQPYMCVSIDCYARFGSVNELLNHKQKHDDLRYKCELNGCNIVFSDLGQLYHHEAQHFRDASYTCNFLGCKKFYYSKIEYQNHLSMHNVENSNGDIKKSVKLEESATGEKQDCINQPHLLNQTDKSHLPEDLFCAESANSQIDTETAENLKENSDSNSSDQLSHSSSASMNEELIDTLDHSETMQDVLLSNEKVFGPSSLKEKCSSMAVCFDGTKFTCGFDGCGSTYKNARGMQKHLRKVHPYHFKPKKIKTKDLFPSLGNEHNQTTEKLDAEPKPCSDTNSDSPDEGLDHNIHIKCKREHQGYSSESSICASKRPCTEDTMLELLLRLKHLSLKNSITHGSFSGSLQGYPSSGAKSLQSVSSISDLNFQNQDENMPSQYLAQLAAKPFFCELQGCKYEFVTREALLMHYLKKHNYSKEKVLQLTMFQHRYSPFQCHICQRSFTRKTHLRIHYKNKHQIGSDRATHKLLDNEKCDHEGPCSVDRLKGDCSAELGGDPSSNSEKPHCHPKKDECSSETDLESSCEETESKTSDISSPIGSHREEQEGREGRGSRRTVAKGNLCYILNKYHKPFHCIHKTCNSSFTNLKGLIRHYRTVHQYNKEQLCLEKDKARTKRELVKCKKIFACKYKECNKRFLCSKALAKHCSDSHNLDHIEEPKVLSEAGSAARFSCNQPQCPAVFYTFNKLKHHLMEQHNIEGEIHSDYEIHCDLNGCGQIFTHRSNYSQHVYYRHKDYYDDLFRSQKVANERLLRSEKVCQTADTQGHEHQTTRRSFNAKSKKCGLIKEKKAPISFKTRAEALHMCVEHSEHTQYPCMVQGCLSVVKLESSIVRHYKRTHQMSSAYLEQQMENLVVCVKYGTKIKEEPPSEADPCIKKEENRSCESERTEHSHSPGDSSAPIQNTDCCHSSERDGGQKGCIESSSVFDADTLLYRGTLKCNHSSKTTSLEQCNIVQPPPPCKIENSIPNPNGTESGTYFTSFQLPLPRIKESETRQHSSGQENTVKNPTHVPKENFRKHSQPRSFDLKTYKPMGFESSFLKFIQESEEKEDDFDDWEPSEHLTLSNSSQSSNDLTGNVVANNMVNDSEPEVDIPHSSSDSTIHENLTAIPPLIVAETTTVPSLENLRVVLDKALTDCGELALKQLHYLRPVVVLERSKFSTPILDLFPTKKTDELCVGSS
# UniProt P40938, whole entry, looked up: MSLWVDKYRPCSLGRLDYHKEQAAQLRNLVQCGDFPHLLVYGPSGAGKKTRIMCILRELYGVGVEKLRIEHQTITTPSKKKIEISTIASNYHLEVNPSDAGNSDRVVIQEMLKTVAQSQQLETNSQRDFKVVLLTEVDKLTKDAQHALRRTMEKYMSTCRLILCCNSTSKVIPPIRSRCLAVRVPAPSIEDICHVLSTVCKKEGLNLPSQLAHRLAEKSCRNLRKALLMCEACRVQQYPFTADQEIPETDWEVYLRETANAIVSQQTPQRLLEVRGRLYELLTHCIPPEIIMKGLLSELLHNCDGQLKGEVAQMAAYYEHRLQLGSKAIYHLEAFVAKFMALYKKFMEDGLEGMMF
# UniProt Q6PJF5: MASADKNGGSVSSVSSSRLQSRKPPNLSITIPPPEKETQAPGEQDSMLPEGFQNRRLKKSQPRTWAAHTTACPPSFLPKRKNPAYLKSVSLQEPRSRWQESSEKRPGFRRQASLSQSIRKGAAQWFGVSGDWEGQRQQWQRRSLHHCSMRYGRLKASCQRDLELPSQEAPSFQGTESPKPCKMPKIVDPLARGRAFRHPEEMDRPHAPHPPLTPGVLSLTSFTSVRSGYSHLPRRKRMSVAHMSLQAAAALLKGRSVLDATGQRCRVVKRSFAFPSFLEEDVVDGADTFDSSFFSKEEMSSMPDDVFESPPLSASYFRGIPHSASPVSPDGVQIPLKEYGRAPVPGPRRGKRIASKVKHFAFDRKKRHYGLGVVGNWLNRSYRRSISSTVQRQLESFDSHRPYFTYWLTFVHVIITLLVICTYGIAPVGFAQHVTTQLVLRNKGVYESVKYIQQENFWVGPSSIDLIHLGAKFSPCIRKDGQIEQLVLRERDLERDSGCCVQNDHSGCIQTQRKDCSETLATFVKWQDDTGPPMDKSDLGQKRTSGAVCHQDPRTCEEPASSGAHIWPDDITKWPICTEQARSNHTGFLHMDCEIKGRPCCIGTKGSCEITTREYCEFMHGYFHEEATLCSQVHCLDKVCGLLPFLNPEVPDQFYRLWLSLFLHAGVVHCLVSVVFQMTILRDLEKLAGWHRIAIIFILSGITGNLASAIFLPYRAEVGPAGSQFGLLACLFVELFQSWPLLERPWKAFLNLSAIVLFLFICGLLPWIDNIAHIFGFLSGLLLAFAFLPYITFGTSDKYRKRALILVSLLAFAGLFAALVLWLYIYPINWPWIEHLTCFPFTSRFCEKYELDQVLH
# UniProt Q5UIP0: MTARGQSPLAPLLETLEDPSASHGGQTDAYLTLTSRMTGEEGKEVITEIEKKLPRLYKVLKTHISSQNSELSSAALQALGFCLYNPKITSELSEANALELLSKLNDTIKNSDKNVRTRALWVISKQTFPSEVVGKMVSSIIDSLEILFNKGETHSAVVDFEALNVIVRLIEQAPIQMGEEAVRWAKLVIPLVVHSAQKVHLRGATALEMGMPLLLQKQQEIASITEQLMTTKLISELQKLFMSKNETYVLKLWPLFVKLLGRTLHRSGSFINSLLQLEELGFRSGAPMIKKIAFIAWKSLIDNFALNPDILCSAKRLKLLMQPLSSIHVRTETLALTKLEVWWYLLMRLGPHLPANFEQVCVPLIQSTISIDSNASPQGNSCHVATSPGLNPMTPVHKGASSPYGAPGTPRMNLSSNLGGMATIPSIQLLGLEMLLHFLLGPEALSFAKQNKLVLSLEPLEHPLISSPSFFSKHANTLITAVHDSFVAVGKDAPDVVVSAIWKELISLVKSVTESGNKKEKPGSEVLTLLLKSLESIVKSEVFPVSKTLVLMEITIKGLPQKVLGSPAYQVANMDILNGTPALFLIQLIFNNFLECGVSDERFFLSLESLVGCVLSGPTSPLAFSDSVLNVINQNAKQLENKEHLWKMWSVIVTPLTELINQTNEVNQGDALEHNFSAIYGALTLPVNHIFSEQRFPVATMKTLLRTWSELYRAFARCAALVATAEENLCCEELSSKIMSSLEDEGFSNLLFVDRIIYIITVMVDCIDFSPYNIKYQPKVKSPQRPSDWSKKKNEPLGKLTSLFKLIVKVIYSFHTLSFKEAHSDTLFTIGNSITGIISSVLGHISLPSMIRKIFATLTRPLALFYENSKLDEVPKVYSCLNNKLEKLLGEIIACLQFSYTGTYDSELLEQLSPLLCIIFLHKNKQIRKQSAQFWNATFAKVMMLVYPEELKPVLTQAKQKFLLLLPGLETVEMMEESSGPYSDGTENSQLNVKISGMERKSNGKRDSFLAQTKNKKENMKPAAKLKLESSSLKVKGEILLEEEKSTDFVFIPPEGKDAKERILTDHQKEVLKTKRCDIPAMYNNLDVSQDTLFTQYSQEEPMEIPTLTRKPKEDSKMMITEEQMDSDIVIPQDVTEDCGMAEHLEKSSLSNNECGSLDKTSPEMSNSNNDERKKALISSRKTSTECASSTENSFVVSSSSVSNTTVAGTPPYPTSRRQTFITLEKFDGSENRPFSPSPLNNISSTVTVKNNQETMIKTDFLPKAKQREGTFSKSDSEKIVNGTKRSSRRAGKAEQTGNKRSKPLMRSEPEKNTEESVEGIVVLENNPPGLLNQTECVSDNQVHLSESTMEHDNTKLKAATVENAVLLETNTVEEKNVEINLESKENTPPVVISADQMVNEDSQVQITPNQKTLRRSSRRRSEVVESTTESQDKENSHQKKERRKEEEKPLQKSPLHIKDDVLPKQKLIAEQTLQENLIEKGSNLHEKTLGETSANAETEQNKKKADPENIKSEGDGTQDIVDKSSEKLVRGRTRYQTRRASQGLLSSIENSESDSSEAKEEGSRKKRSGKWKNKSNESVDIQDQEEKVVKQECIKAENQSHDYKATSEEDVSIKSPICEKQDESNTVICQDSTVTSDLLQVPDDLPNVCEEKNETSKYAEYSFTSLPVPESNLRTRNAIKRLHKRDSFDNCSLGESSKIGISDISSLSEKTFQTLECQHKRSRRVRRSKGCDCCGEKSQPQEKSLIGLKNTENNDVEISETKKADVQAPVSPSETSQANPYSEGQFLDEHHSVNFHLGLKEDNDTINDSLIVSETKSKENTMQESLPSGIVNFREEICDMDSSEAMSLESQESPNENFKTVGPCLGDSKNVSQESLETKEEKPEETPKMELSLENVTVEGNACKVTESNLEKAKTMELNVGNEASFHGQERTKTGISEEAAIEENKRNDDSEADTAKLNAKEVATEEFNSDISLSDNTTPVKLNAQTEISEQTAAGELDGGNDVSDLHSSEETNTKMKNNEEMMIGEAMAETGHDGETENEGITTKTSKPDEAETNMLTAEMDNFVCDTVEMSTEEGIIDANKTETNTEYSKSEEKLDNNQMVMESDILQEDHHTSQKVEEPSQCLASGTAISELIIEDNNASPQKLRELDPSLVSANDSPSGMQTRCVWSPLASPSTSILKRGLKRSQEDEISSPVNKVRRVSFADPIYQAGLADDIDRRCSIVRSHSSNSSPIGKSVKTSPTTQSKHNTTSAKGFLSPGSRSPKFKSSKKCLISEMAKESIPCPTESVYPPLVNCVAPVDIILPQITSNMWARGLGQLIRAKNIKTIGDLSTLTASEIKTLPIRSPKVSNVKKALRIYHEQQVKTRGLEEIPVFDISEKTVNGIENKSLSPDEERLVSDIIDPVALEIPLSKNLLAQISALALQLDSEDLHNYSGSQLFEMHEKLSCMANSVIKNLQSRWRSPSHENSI
# UniProt Q9NTX7: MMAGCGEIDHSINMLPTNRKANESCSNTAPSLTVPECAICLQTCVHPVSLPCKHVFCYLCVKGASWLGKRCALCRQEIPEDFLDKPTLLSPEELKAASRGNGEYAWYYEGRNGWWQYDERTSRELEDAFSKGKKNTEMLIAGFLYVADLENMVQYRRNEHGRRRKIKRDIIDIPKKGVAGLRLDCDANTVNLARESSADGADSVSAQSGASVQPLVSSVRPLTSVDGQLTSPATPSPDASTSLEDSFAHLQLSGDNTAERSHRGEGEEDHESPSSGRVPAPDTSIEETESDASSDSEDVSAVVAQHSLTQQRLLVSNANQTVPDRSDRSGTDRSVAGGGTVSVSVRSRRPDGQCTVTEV
# UniProt Q15493: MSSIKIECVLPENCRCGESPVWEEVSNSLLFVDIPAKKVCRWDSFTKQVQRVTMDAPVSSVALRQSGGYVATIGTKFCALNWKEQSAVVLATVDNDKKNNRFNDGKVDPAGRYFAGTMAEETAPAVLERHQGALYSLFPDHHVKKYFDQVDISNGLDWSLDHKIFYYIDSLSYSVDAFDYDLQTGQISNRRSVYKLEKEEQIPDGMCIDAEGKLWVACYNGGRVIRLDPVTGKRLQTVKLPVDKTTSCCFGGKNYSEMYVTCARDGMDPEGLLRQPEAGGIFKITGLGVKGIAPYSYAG
# UniProt Q9Y508: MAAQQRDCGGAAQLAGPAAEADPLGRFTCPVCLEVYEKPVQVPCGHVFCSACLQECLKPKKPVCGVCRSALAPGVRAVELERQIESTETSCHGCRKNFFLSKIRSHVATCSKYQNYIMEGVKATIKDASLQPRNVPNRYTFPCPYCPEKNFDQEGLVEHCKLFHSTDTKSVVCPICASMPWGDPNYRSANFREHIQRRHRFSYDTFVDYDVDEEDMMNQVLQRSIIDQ
# The other results are listed elsewhere or left out.
# Compound: Cc1cc(ccc1-c1ccccc1)C(=O)N1CCCN(CC1)C(=O)CCl [compound 10]
# Test: probe-labelled cysteine peptide fold change vs DMSO (competition) (log2 fold change); higher = less target engagement (more negative = stronger competition)
# Details: THP-1, incubation time: 4 h
# 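Also: competitive profiling in live THP-1 cells: cysteine peptides tagged with an iodoacetamide desthiobiotin (IA-DTB) probe, intensity after compound treatment relative to DMSO-treated cells.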
Target,probe-labelled cysteine peptide fold change (10 µM),probe-labelled cysteine peptide fold change (50 µM)
REPS1_Q96D71_344_DGALTLDEFCAAFHLVVAR (UniProt Q96D71),0.12,0.214
RNF126_Q9BV68_16_YFCHCCSVEIVPR (UniProt Q9BV68),-0.069,-0.143
RGS10_O43665_66_EFSEENVLFWLACEDFKK (UniProt O43665),0.0842,0.0916
RILPL2_Q969X0_161_SQLLVVQEELQCYK (UniProt Q969X0),-0.135,-0.0772
RFTN1_Q14699_211_GDHASLENEKPGTGDVCSAPAGR (UniProt Q14699),0.161,-0.495
RHOG_P84095_18_TCLLICYTTNAFPK (UniProt P84095),-0.108,0.0979
RNF139_Q8WU17_585_WLYIQDTCPMCHQK (UniProt Q8WU17),-0.0976,-0.33
REST_Q13127_945_HQTDSIVCEMK (UniProt Q13127),-0.119,-0.186
RLF_Q13129_227_SNCIPQATALSK (UniProt Q13129),-0.0888,-0.229
RLF_Q13129_773_CELNGCNIVFSDLGQLYHHEAQHFR (UniProt Q13129),0.00468,-0.0401
RFC4_P35249_281_IDGVFAACQSGSFDKLEAVVK (UniProt P35249),-0.113,-0.321
RFC3_P40938_233_ALLMCEACR (UniProt P40938),0.178,-0.202
RNF138_Q8WVD3_34_TTACQHVFCR (UniProt Q8WVD3),0.05,-0.131
RHBDF2_Q6PJF5_500_DSGCCVQNDHSGCIQTQR (UniProt Q6PJF5),-0.0344,-0.181
RHOT2_Q8IXI1_297_RFGYSDALELTADYLSPLIHVPPGCSTELNHLGYQFVQR (UniProt Q8IXI1),-0.206,-0.29
RNASET2_O00584_121_HGTCAAQVDALNSQKK (UniProt O00584),0.149,-0.516
RIF1_Q5UIP0_1865_TVGPCLGDSK (UniProt Q5UIP0),-0.314,-0.122
RNF146_Q9NTX7_185_LDCDANTVNLAR (UniProt Q9NTX7),-0.0262,-0.0309
RNASEH2B_Q5TBB1_7_AAGVDCGDGVGAR (UniProt Q5TBB1),-0.163,0.397
RHOA_P61586_159_IGAFGYMECSAK (UniProt P61586),-0.00736,-0.162
RGN_Q15493_218_LWVACYNGGR (UniProt Q15493),-0.427,-0.518
RHOT2_Q8IXI1_504_SFAHCASVYK (UniProt Q8IXI1),-0.0106,-0.0219
RING1_Q06587_48+51_SLHSELMCPICLDMLK (UniProt Q06587),-0.0753,-0.585
RNF114_Q9Y508_160_NFDQEGLVEHCK (UniProt Q9Y508),0.0873,0.126
RLF_Q13129_948_CSSMAVCFDGTK (UniProt Q13129),-0.522,-0.843
RLF_Q13129_808_DASYTCNFLGCK (UniProt Q13129),-0.183,-0.76
